Record: PubChem BioAssay AID652243 (Drosophila RNAi Screening Center, 2013)
The screen tested about 24,000 reagents; below is an unselected part of those that have a named target and a result. Of all reagents, 246 (1%) were called active. 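Plates not normalised; calls are printed but the firefly/Renilla ratio behind them is not deposited; fold cut for lowering reported inconsistently.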 The raw values are shown without normalisation. The record does not give: the amount of reagent.

- Assay: 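Knock-downs that decrease or increase androgen receptor reporter signal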 (primary screen)
- Cells: Drosophila S2R+ cells
- Reagent: long dsRNA against Drosophila genes
- Duration: 72 h (48 h, then 24 h hormone)
- Treatment: synthetic androgen R1881 at 10 nM for 24 h
- Read-out: 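Per-well raw luminescence of the androgen-driven firefly reporter and of the Renilla control, two replicates each, without normalisation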
- Direction: firefly reporter light: higher = more light from androgen-responsive reporter; Renilla control light: higher = more constitutive control signal (cell number, transfection)
- Active means: 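Hit when the log firefly-to-Renilla ratio dropped or increased by a fixed fold versus the mean of GFP or LacZ controls across duplicate plates; lowering cut given as 1.5 and as 3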
- Meaning of the calls: active = hit: reporter lowered or raised; inactive = no hit

CG7990 [DRSC19296] → firefly reporter light, replicate 1: 7.95e5; firefly reporter light, replicate 2: 9.26e5; Renilla control light, replicate 1: 1.57e6; Renilla control light, replicate 2: 1.39e6; call: inactive
CG7990 [DRSC23195] → firefly reporter light, replicate 1: 8.69e5; firefly reporter light, replicate 2: 8.11e5; Renilla control light, replicate 1: 1.59e6; Renilla control light, replicate 2: 1.40e6; call: inactive
CG7990 [DRSC26580] → firefly reporter light, replicate 1: 3.69e5; firefly reporter light, replicate 2: 2.79e5; Renilla control light, replicate 1: 6.71e5; Renilla control light, replicate 2: 7.70e5; call: inactive
CG6878 [DRSC10737] → firefly reporter light, replicate 1: 2.36e5; firefly reporter light, replicate 2: 2.71e5; Renilla control light, replicate 1: 2.26e6; Renilla control light, replicate 2: 2.47e6; call: inactive
Doc3 [DRSC10480] → firefly reporter light, replicate 1: 2.81e5; firefly reporter light, replicate 2: 1.46e5; Renilla control light, replicate 1: 3.11e6; Renilla control light, replicate 2: 1.21e6; call: inactive
Doc3 [DRSC28205] → firefly reporter light, replicate 1: 6.88e5; firefly reporter light, replicate 2: 5.79e5; Renilla control light, replicate 1: 1.50e6; Renilla control light, replicate 2: 1.25e6; call: inactive
Taf12L [DRSC00467] → firefly reporter light, replicate 1: 1.44e5; firefly reporter light, replicate 2: 85003; Renilla control light, replicate 1: 1.03e6; Renilla control light, replicate 2: 9.55e5; call: inactive
dome [DRSC19583] → firefly reporter light, replicate 1: 83499; firefly reporter light, replicate 2: 18606; Renilla control light, replicate 1: 4.49e5; Renilla control light, replicate 2: 2.41e5; call: inactive
dome [DRSC36979] → call: inactive
dome [DRSC36980] → call: inactive
CG14427 [DRSC17921] → firefly reporter light, replicate 1: 3.17e5; firefly reporter light, replicate 2: 3.36e5; Renilla control light, replicate 1: 2.31e6; Renilla control light, replicate 2: 2.08e6; call: inactive
CG14427 [DRSC29421] → firefly reporter light, replicate 1: 4.11e5; firefly reporter light, replicate 2: 6.39e5; Renilla control light, replicate 1: 1.24e6; Renilla control light, replicate 2: 1.24e6; call: inactive
CG15717 [DRSC19684] → firefly reporter light, replicate 1: 4.78e5; firefly reporter light, replicate 2: 5.98e5; Renilla control light, replicate 1: 3.50e6; Renilla control light, replicate 2: 4.15e6; call: inactive
CecA1 [DRSC16603] → firefly reporter light, replicate 1: 3.05e5; firefly reporter light, replicate 2: 2.54e5; Renilla control light, replicate 1: 2.14e6; Renilla control light, replicate 2: 3.79e6; call: inactive
Fdh [DRSC16670] → firefly reporter light, replicate 1: 26341; firefly reporter light, replicate 2: 40088; Renilla control light, replicate 1: 3.40e5; Renilla control light, replicate 2: 6.09e5; call: inactive
CG15550 [DRSC15088] → firefly reporter light, replicate 1: 1.56e5; firefly reporter light, replicate 2: 1.66e5; Renilla control light, replicate 1: 2.09e6; Renilla control light, replicate 2: 2.99e6; call: inactive
CG15550 [DRSC29401] → firefly reporter light, replicate 1: 3.66e5; firefly reporter light, replicate 2: 4.31e5; Renilla control light, replicate 1: 1.04e6; Renilla control light, replicate 2: 1.04e6; call: inactive
CG12521 [DRSC09893] → firefly reporter light, replicate 1: 3.10e5; firefly reporter light, replicate 2: 2.53e5; Renilla control light, replicate 1: 3.00e6; Renilla control light, replicate 2: 2.49e6; call: inactive
Targ [DRSC06206] → firefly reporter light, replicate 1: 88884; firefly reporter light, replicate 2: 93891; Renilla control light, replicate 1: 9.09e5; Renilla control light, replicate 2: 9.09e5; call: inactive
Muc12Ea [DRSC19937] → firefly reporter light, replicate 1: 5.44e5; firefly reporter light, replicate 2: 6.05e5; Renilla control light, replicate 1: 1.63e6; Renilla control light, replicate 2: 1.83e6; call: inactive
Muc12Ea [DRSC28059] → firefly reporter light, replicate 1: 2.77e5; firefly reporter light, replicate 2: 2.77e5; Renilla control light, replicate 1: 1.06e6; Renilla control light, replicate 2: 9.85e5; call: inactive

Records above whose target name begins with M or m (2):
Muc12Ea [DRSC19937] → firefly reporter light, replicate 1: 5.44e5; firefly reporter light, replicate 2: 6.05e5; Renilla control light, replicate 1: 1.63e6; Renilla control light, replicate 2: 1.83e6; call: inactive
Muc12Ea [DRSC28059] → firefly reporter light, replicate 1: 2.77e5; firefly reporter light, replicate 2: 2.77e5; Renilla control light, replicate 1: 1.06e6; Renilla control light, replicate 2: 9.85e5; call: inactive
